Laboratory results: PubChem BioAssay AID504744 (Drosophila RNAi Screening Center, 2011)
Purpose: 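Find genes whose loss alters insulin-driven dAkt phosphorylation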 (primary screen). Cell system: Drosophila Kc167 cells. Reagents: long dsRNA against Drosophila genes, 250 ng dsRNA per well of a 384-well plate. Duration: 3 days of knock-down, then overnight serum-free starvation before stimulation. Treatment: bovine insulin at 387 nM for 10 minutes after 12 h without serum. Read-out: 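Per-well phospho-dAkt level from an in-cell fluorescent antibody stain, divided by a DNA-dye signal; log2 residuals turned into z-scores that take cell number into account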. Call rule: 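Hit in the insulin screen when the two-replicate mean z-score is more extreme than plus or minus 2.5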.
The screen tested about 23,000 reagents; this is a random part of those that have a named target and a result. In the full data, 98 (0.43%) got an active call. 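Only hit calls are given; the phospho-dAkt signals, z-scores and hit direction were not deposited.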 The numbers tell different reagents against one gene apart. Names joined by + are all predicted targets of the reagent.

| gene | reagent no. | outcome |
| --- | --- | --- |
| atl (GeneID 42934) | 1 | inactive |
| Ufl1 (GeneID 40843) | 1 | inactive |
| Appl (GeneID 31002) | 1 | inactive |
| salt (GeneID 43742) | 1 | inactive |
| CG13614 (GeneID 42911) | 1 | inactive |
| yellow-e3 (GeneID 41651) | 1 | inactive |
| Ppcs (GeneID 42295) | 1 | inactive |
| Mtpalpha (GeneID 34276) | 1 | inactive |
| CG8149 (GeneID 41137) | 1 | inactive |
| l(3)76BDm (GeneID 40140) | 1 | inactive |
| CG9948 (GeneID 38757) | 1 | inactive |
| CG32066 (GeneID 39206) | 1 | inactive |
| CG32066 (GeneID 39206) | 2 | inactive |
| futsch (GeneID 5740544) | 1 | inactive |
| futsch (GeneID 5740544) | 2 | inactive |
| futsch (GeneID 5740544) | 3 | inactive |
| futsch (GeneID 5740544) | 4 | inactive |
| Tat (GeneID 32381) | 1 | inactive |
| CG11529 (GeneID 39395) | 1 | inactive |
| Brd7-9 (GeneID 34062) | 1 | inactive |
| schlank (GeneID 50392) | 1 | inactive |
| schlank (GeneID 50392) | 2 | inactive |
| CG12035 (GeneID 38217) | 1 | inactive |
| yki (GeneID 37851) | 1 | inactive |
| CG4853 (GeneID 36974) | 1 | inactive |
| CG9702 (GeneID 43634) | 1 | inactive |
| zpg (GeneID 251414) | 1 | inactive |
| Obp19b (GeneID 33038) | 1 | inactive |
| SCCRO3 (GeneID 36426) | 1 | inactive |
| CG3817 (GeneID 41805) | 1 | inactive |
| Afg3l2 (GeneID 39922) | 1 | inactive |
| CG13532 (GeneID 37632) | 1 | inactive |
| odd (GeneID 33583) | 1 | inactive |
| Pvr (GeneID 34127) | 1 | inactive |
| hrg (GeneID 49636) | 1 | inactive |
| CG8818 (GeneID 36375) | 1 | inactive |
| CG15395 (GeneID 33447) | 1 | inactive |
| Ube4A (GeneID 33932) | 1 | inactive |
| CR12798 (GeneID 10178819) | 1 | inactive |
| unc80 (GeneID 43324) | 1 | inactive |
| sau (GeneID 33402) | 1 | inactive |
| Phyhd1 (GeneID 41275) | 1 | inactive |
| CG15812 (GeneID 38379) | 1 | inactive |
| CG7988 (GeneID 42180) | 1 | inactive |
| RpL10 (GeneID 43864) | 1 | inactive |
| blot (GeneID 39939) | 1 | inactive |
| blot (GeneID 39939) | 2 | active |
| Amy-d (GeneID 36932) | 1 | inactive |
| sba (GeneID 42824) | 1 | inactive |
| sba (GeneID 42824) | 2 | inactive |
| Naus (GeneID 37076) | 1 | inactive |
| Naus (GeneID 37076) | 2 | inactive |
| Vps51 (GeneID 37156) | 1 | inactive |
| GstE7 (GeneID 37112) | 1 | inactive |
| CG14227 (GeneID 32978) | 1 | inactive |
| Trf2 (GeneID 31773) | 1 | inactive |
| alpha-Man-Ia (GeneID 31957) | 1 | inactive |
| alpha-Man-Ia (GeneID 31957) | 2 | inactive |
| alpha-Man-Ia (GeneID 31957) | 3 | inactive |
| alpha-Man-Ia (GeneID 31957) | 4 | inactive |
| akirin (GeneID 38821) | 1 | inactive |
| CG8757 (GeneID 39528) | 1 | inactive |
| Tmem214 (GeneID 34514) | 1 | inactive |
| Tmem214 (GeneID 34514) | 2 | inactive |
| CG14370 (GeneID 41659) | 1 | inactive |
| form3 (GeneID 3346238) | 1 | inactive |
| form3 (GeneID 3346238) | 2 | inactive |
| form3 (GeneID 3346238) | 3 | inactive |
| MYPT-75D (GeneID 40032) | 1 | inactive |
| Dip-B (GeneID 48450) | 1 | inactive |
| mRpL22 (GeneID 32662) | 1 | inactive |
| Gyc32E (GeneID 34553) | 1 | inactive |
| Cyp305a1 (GeneID 40161) | 1 | inactive |
| CheB93a (GeneID 42540) | 1 | inactive |
| CG13540 (GeneID 37686) | 1 | inactive |
| CG14628 (GeneID 31057) | 1 | inactive |
| HmgD (GeneID 37481) | 1 | inactive |
| CG10991 (retired record) (GeneID 40730) | 1 | inactive |
| fbp (GeneID 35265) | 1 | inactive |
| CG2202 (GeneID 32014) | 1 | inactive |
| CG33330 (retired record) (GeneID 2768667) | 1 | inactive |
| CG33330 (retired record) (GeneID 2768667) | 2 | inactive |
| cac (GeneID 32158) | 1 | inactive |
| cac (GeneID 32158) | 2 | inactive |
| TppII (GeneID 36444) | 1 | inactive |
| run (GeneID 33059) | 1 | inactive |
| run (GeneID 33059) | 2 | inactive |
| mtd (GeneID 45467) | 1 | inactive |
| mtd (GeneID 45467) | 2 | inactive |
| mtd (GeneID 45467) | 3 | inactive |
| Mppe (GeneID 36285) | 1 | inactive |
| CG4325 (GeneID 31167) | 1 | inactive |
| CG5612 (GeneID 43316) | 1 | inactive |
| Chrac-16 (GeneID 32166) | 1 | inactive |
| CG30103 (GeneID 36969) | 1 | inactive |
| CG12551 (retired record) (GeneID 35518) | 1 | inactive |
| CG12551 (retired record) (GeneID 35518) | 2 | inactive |
| CG4849 (GeneID 43358) | 1 | inactive |
| CG13101 (GeneID 34221) | 1 | inactive |
| CG34277 + CG31542 | 1 | inactive |
| CG18547 (GeneID 41452) | 1 | inactive |
| CG9259 (GeneID 35372) | 1 | inactive |
| CG6503 (GeneID 50079) | 1 | inactive |
| CG13398 (GeneID 34169) | 1 | inactive |
| Bacc (GeneID 33462) | 1 | inactive |
| Ir52d (GeneID 36716) | 1 | inactive |
| CG6683 (GeneID 38970) | 1 | inactive |
| capt (GeneID 45233) | 1 | inactive |
| capt (GeneID 45233) | 2 | inactive |
| CG42507 + Trl | 1 | inactive |
| CG42507 + Trl | 2 | inactive |
| Pgant3 (GeneID 35627) | 1 | inactive |
| CG42784 (GeneID 326165) | 1 | inactive |
| CG42784 (GeneID 326165) | 2 | inactive |
| CG42784 (GeneID 326165) | 3 | inactive |
| Awh (GeneID 38451) | 1 | inactive |
| Gr66a (GeneID 38935) | 1 | inactive |
| CanB2 (GeneID 46456) | 1 | inactive |

Hits (from the list above):
| gene | reagent no. | outcome |
| --- | --- | --- |
| blot (GeneID 39939) | 2 | active |

The results go on:
| gene | reagent no. | outcome |
| --- | --- | --- |
| RecQ5 (GeneID 39594) | 1 | inactive |
| Rab3-GEF (GeneID 32442) | 1 | inactive |
| Rab3-GEF (GeneID 32442) | 2 | inactive |
| Rab3-GEF (GeneID 32442) | 3 | inactive |
| CG34011 (GeneID 3885619) | 1 | inactive |
| TBC1D5 (GeneID 41628) | 1 | inactive |
| Cyp9f2 (GeneID 41520) | 1 | inactive |
| ND-15 (GeneID 33179) | 1 | inactive |
| blow (GeneID 35694) | 1 | inactive |
| REPTOR (GeneID 42930) | 1 | inactive |
| Oatp33Ea (GeneID 34660) | 1 | inactive |
| CG14629 (GeneID 31055) | 1 | inactive |
| CG7194 (GeneID 38933) | 1 | inactive |
| Hsc70-1 (GeneID 39542) | 1 | inactive |
| CHES-1-like (GeneID 31678) | 1 | inactive |
| otk (GeneID 36283) | 1 | inactive |
| CG11638 (GeneID 31050) | 1 | inactive |
| CG11638 (GeneID 31050) | 2 | inactive |
| CG16989 (GeneID 31026) | 1 | inactive |
| CG42296 (GeneID 53544) | 1 | inactive |
| CG31176 (GeneID 42554) | 1 | inactive |
| CG31176 (GeneID 42554) | 2 | inactive |
| tor (GeneID 35717) | 1 | inactive |
| Fas2 (GeneID 31364) | 1 | inactive |
| Fas2 (GeneID 31364) | 2 | inactive |
| Fas2 (GeneID 31364) | 3 | inactive |
| CG13041 (GeneID 39801) | 1 | inactive |
| dan (GeneID 43023) | 1 | inactive |
| Tfb4 (GeneID 33294) | 1 | inactive |
| CG17298 (GeneID 42529) | 1 | inactive |
| UQCR-Q (GeneID 39950) | 1 | inactive |
| CG3040 (GeneID 31642) | 1 | inactive |
| CG34166 (GeneID 5740596) | 1 | inactive |
| Trf5 (GeneID 33454) | 1 | inactive |
| CG17786 (GeneID 42879) | 1 | inactive |
| tyn (GeneID 3354987) | 1 | inactive |
| CG11655 (GeneID 32472) | 1 | inactive |
| Regnase-1 (GeneID 42394) | 1 | inactive |
| CG8349 (GeneID 34124) | 1 | inactive |
| Dus2 (GeneID 32377) | 1 | inactive |
| Timp (GeneID 41248) | 1 | inactive |
| CG14219 (GeneID 32951) | 1 | inactive |
| Muc96D (GeneID 318737) | 1 | inactive |
| Muc96D (GeneID 318737) | 2 | inactive |
| spz6 (GeneID 37956) | 1 | inactive |
| CG3862 (GeneID 33261) | 1 | inactive |
| CR31824 (GeneID 10178848) | 1 | inactive |
| Sox15 (GeneID 36575) | 1 | inactive |
| me31B (GeneID 34364) | 1 | inactive |
| Arl6 (GeneID 37236) | 1 | inactive |
| CG1344 (GeneID 35500) | 1 | inactive |
| CG1792 (GeneID 43727) | 1 | inactive |
| CG33702 (GeneID 3771932) | 1 | inactive |
| Smyd4-3 (GeneID 36234) | 1 | inactive |
| CG1824 (GeneID 32208) | 1 | inactive |
| CG2818 (GeneID 33597) | 1 | inactive |
| mal (GeneID 33045) | 1 | inactive |
| sky (GeneID 35359) | 1 | inactive |
| sky (GeneID 35359) | 2 | inactive |
| sky (GeneID 35359) | 3 | inactive |
| whd (GeneID 36109) | 1 | inactive |
| CG32032 (GeneID 192535) | 1 | inactive |
| CG3270 (GeneID 35575) | 1 | inactive |
| squ (GeneID 2768920) | 1 | inactive |
| didum (GeneID 35680) | 1 | inactive |
| PIG-A (GeneID 37020) | 1 | inactive |
| CG11400 (GeneID 36935) | 1 | inactive |
| CG10674 (GeneID 38602) | 1 | inactive |
| Rtnl2 (GeneID 40903) | 1 | inactive |
| Rtnl2 (GeneID 40903) | 2 | inactive |
| Ork1 (GeneID 32020) | 1 | inactive |
| CG10555 (GeneID 31771) | 1 | inactive |
| Rim2 (GeneID 33350) | 1 | inactive |
| Rim2 (GeneID 33350) | 2 | inactive |
| Rim2 (GeneID 33350) | 3 | inactive |
| SK (GeneID 31456) | 1 | inactive |
| SK (GeneID 31456) | 2 | inactive |
| SK (GeneID 31456) | 3 | inactive |
| SK (GeneID 31456) | 4 | inactive |
| SK (GeneID 31456) | 5 | inactive |
| SK (GeneID 31456) | 6 | inactive |
| CG30259 (GeneID 37606) | 1 | inactive |
| CG30259 (GeneID 37606) | 2 | inactive |
